Earlier results in patent US9250230B2, “Using induced pluripotent stem cells for screening anti-neoplastic agents” (priority 2011, dated 2016).
For at least one compound, name, drawing or mass did not settle the structure.

What was measured:
[1] = tested on: cancer cell lines re-expressing SMCT1; conditions: re-expression of SMCT1
[2] = tested on: generation of iPSCs
[3] = tested on: Taxol-resistant cells; conditions: Taxol-resistant cells with increased LDH-A expression and activity

SMILES	effect on cancer cell lines re-expressing SMCT1 [1]	effect on generation of iPSCs [2]	stimulation on reprogramming ([2]; in the absence of KLF4 or MYC transgene)	sensitivity of Taxol-resistant cells to LDH inhibitor [3]
CCCC(=O)O [butyrate]	growth arrest and apoptosis	promoted generation of iPSCs	remarkable butyrate stimulation on reprogramming	–
NC(=O)C(=O)O [oxamate]	–	–	–	higher sensitivity
CC(=O)C(=O)O [pyruvate]	growth arrest and apoptosis	–	–	–
